PubChem BioAssay AID493014 (National Center for Advancing Translational Sciences (NCATS), 2011)
Some of the results follow. These are further read-outs of the screen, such as a control signal, another cell line or another target. No call is given for them. Most of these compounds were active or inconclusive in the main read-out, so they are no random draw. The note in brackets gives the kind of curve behind each potency; many fits are weak.

Test: qHTS Assay to Find Inhibitors of Chronic Active B-Cell Receptor Signaling
Conditions: ABC-DLBCL IkBa-CBG/CBR reporter, luminescence ratio (green luciferase fused to IkBa over red control in TMD8 lymphoma cells), 4 h
Method in brief: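 Concentration-response series (up to 46 uM) were applied to TMD8 dual-reporter cells for 4 h at 37C with doxycycline. Green/red ratio, after filter-overlap correction, defined %Activity; red signal alone was normalised to basal cells and zero luminescence.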

[1] = measured here: CBR red luminescence, cell number
[2] = measured here: IkBa-CBG green luminescence

Compound	AC50 [1]	AC50 [2]
Cc1noc(C(=O)Nc2cccc(O)c2)c1Cl	3.98 µM [falling, partial curve, poor fit]	–
CCOC(=O)C1CCN(S(=O)(=O)c2ccc3c4c(cccc24)C(=O)N3CC)CC1	6.51 µM [rising, single point]	1.64 µM [falling, partial curve, poor fit]
C=CCNC(=S)N1CCN(CCN=CC2=C(O)CC(c3ccc(Cl)cc3)CC2=O)CC1 (centres undefined)	3.16 µM [falling, partial curve, poor fit]	–
O=C(Nc1cc(=O)[nH]c2ncnn12)c1ccccc1Cl	35.5 µM [falling, single point]	–
O=C(/C=C/c1ccc(F)cc1)NC(=S)N1CCCCC1c1cccnc1 (centres undefined)	6.31 µM [rising, single point]	–
CC1=CC(=NOC(=O)c2cccc([N+](=O)[O-])c2)C=C(C)C1=O	7.31 µM [falling, partial curve]	–
COc1cccc(C2CC(=O)Nc3n[nH]c(-c4ccccc4)c32)c1OC (centres undefined)	1.78 µM [rising, partial curve, poor fit]	–
CC(=O)c1cccc(Nc2ncnc3ccc(Br)cc23)c1	10 µM [falling, partial curve, poor fit]	–
O=CN1CCN(c2ncnc3c2nnn3Cc2c(F)cccc2Cl)CC1	11.2 µM [rising, partial curve, poor fit]	–
Cc1nnc(N/N=C/c2ccc(Br)cc2)n1N	4.47 µM [rising, single point]	–
Cc1cccc(NC(=O)COc2nsnc2N2CCOCC2)c1	17.8 µM [falling, single point]	–
CCCC(=O)N/C(N)=N/c1nc(C)c2ccccc2n1	2 µM [falling, full curve]	–
N#Cc1cnc(N)c(Br)c1	11.2 µM [falling, partial curve, poor fit]	–
Cc1ccc(CC2CC(=O)N(C(Cc3ccccc3)C(=O)O)C2=O)cc1 (centres undefined)	1 µM [rising, full curve, poor fit]	–
CC(CNC(=S)Nc1cc(F)cc(F)c1)CSc1ccc(Cl)cc1 (centres undefined)	35.5 µM [falling, single point]	–
Cc1ccccc1CN(C)Cc1cc(=O)oc2c(C)c(C)ccc12	6.31 µM [rising, full curve, poor fit]	–
Cc1ccc(NC(=O)NNC(=O)c2snnc2C)cc1	15.8 µM [falling, single point]	–
CCOc1ccccc1NC(=O)C(NCCc1ccc(OC)cc1)c1ccccc1 (centres undefined)	2.82 µM [falling, single point]	–
CCOc1ccc(N(CC(=O)N/N=C/c2cc([N+](=O)[O-])ccc2Cl)S(C)(=O)=O)cc1	0.0058 µM [falling, full curve, poor fit]	–
COc1cccc(C(=O)NC2CC3CCCC(C2)N3CC(=O)Nc2ccccc2C(F)(F)F)c1 (centres undefined)	35.5 µM [falling, single point]	–
COc1ccc(CC(=O)Nc2nc3ccccc3s2)cc1S(=O)(=O)N1CCOCC1	14.1 µM [falling, partial curve, poor fit]	–

Compound	AC50 [1]	AC50 [2]
Cc1ccc(C(c2c(C)[nH][nH]c2=O)c2c(C)[nH][nH]c2=O)cc1[N+](=O)[O-]	14.6 µM [falling, partial curve]	–
CN(C)C(=O)c1ccc(Nc2nnc(-c3ccc(O)cc3)c3ccccc23)cc1	14.1 µM [falling, single point]	–
COc1cc(/C=N/NS(=O)(=O)c2ccc(C)cc2)ccc1OCc1ccc(C(=O)O)cc1	2 µM [falling, full curve]	–
CCC(Cc1ccccc1)NC(=O)CCn1cccc1 (centres undefined)	0.00461 µM [falling, full curve, poor fit]	–
Cc1ccc(-c2noc(CCCC(=O)NC3CCCC3)n2)cc1	–	5.01 µM [rising, partial curve, poor fit]
CCOC(=O)c1c(NC(NC(C)=O)C(Cl)(Cl)Cl)sc2c1CCCC2 (centres undefined)	14.6 µM [falling, partial curve, poor fit]	–
CCc1noc(C)c1C(=O)Nc1nc2ccc(OC)cc2s1	23.1 µM [falling, partial curve]	–
COc1ccccc1N=Nc1c(C)noc1C	20 µM [rising, partial curve, poor fit]	15.8 µM [falling, single point]
CCC(C)N(C(=O)COC(=O)c1cc([N+](=O)[O-])ccc1N)C1CCS(=O)(=O)C1 (centres undefined)	3.16 µM [falling, partial curve, poor fit]	–
CSc1ccc(NC(=O)NCCCN2CCC(Cc3ccccc3)CC2)cc1	14.1 µM [falling, partial curve]	–
CCCc1nc(SCc2cccnc2)c2c(=O)n(C)c(=O)n(C)c2n1	5.8 µM [falling, partial curve]	–
CS(=O)(=O)Cc1nc2ccccc2oc1=O	8.91 µM [falling, partial curve, poor fit]	–
Cc1ccc(NC(=O)/C=N/OCC(=O)NCc2ccccc2Cl)cc1	12.6 µM [falling, partial curve]	–
CCOC(=O)CSc1nc2c(sc3cccc(F)c32)c(=O)n1Cc1ccc(OC)cc1	6.31 µM [rising, single point]	–
COc1cccc(C2CC3(CC(C)(C)NC(=S)N3)Oc3cc(O)ccc32)c1 (centres undefined)	29.1 µM [falling, single point]	–
c1ccc(OCCOc2ncnc3ccccc23)cc1	1.41 µM [rising, partial curve]	–
O=C(O)c1cc2n(n1)CCN(Cc1ccccc1Cl)C2=O	5.62 µM [falling, single point]	–
CC(=O)c1c(N2CCN(Cc3ccccc3)CC2)[nH]c(-c2ccccc2)nc1=S	17.8 µM [rising, partial curve, poor fit]	–
CCCCNc1c(-c2ccc(SC3CCCCC3)c(OC)c2)nc2ccc(Cl)cn12	16.4 µM [rising, single point]	–
CCOc1ccc(OCc2ccc(C(=O)N/N=C(\C)c3ccccn3)cc2)cc1	12.6 µM [rising, partial curve]	1.58 µM [falling, full curve]

Fetched by compound from the list above, two records:
Compound	AC50 [1]	AC50 [2]
CCCC(=O)N/C(N)=N/c1nc(C)c2ccccc2n1	2 µM [falling, full curve]	–
CCOc1ccc(N(CC(=O)N/N=C/c2cc([N+](=O)[O-])ccc2Cl)S(C)(=O)=O)cc1	0.0058 µM [falling, full curve, poor fit]	–
